Measured values published in US12590147.
Changes are numbered by the printed parent chain. Results are given in words; binding and its absence hold for the method and conditions named. Some entries that bind do so weakly or less than the wild type.

Chains of the proteins cited; added tags and fusions are not shown. Lines headed by an entry give the natural chain unless they say otherwise; changes in a name come on top.
UniProt Q8NER1: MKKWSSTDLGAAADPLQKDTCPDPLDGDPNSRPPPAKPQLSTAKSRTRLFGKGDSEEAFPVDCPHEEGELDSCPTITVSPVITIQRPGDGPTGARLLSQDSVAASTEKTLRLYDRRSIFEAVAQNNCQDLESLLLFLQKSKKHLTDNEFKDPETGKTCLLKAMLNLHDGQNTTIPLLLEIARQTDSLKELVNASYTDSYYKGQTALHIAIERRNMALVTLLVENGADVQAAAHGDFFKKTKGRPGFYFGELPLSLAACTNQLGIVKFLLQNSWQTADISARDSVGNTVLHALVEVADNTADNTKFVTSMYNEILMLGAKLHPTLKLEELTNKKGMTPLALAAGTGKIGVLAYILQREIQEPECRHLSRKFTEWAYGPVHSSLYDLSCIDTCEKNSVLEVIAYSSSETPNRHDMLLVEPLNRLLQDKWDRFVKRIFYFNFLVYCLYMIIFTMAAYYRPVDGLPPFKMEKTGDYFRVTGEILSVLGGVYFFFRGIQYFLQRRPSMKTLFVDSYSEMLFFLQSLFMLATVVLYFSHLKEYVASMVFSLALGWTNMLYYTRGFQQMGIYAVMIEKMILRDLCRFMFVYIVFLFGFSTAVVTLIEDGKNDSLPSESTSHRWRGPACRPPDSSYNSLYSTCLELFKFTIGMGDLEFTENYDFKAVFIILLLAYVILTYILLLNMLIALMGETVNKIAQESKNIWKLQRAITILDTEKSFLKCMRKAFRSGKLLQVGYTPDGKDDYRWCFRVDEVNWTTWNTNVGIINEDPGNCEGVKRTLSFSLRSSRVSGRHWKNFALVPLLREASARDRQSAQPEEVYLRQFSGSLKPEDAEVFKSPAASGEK
UniProt P02769: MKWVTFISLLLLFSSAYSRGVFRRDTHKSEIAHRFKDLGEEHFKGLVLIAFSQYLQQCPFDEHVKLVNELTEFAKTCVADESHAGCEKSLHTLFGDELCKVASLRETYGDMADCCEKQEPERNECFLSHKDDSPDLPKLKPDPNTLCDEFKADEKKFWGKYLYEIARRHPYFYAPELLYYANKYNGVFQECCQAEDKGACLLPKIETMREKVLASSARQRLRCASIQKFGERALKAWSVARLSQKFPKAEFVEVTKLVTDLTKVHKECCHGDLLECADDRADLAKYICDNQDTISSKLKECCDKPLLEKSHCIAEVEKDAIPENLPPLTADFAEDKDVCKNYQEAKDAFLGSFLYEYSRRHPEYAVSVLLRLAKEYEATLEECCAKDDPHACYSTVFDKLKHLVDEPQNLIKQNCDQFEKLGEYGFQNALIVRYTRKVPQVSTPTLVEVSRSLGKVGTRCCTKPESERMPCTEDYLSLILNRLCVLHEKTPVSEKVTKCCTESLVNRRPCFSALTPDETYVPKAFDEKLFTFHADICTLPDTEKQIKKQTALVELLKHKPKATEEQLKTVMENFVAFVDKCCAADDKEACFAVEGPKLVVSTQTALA

B1: 32C8-1 (antibody, V domains shown)
VH: DVQLQESGPGLVKPSQSLSLTCTVTDYSFTSDFAWNWIRQFPGNKLEWMGFITYSDHTNYNPSLISRISITRDTSKNQFFLQLNSVTPEDTATYYCARSTTYFDYWGQGTTLTVSS
VL: DVLMTQTPLSLPVSLGDQASISCRSSQTILHSDGNTYLEWYLQKPGQSPKLLIYKVSNRFSGVPDRFSGSGSGTDFTLKISRVEAEDLGVYYCFQGSHVPPTFGGGTKLEIK
B2: 34C11-1 (antibody, V domains shown)
VH: B1 VH with Q82L
VL: B1 VL with T28S, A85T
B3: 33C9-1 (antibody, V domains shown)
VH: B1 VH with F29L, F33Y, F51Y, D56G, H57Y, I65K, N77T, N84S, P88T, Y102F
VL: B1 VL with T28S, L30V, V83L, A85D
B4: 41B5-1 (antibody, V domains shown)
VH: B1 VH with F29L, F33Y, F51Y, D56G, H57Y, Y60F, I65R, N77T, P88A, A97V
VL: B1 VL with T28S, L30V, S81N, V90I
B5: 40B10-1 (antibody, V domains shown)
VH: B1 VH with Q82L
VL: B1 VL with T28S, A85T
B6: 46D9-1 (antibody, V domains shown)
VH: B1 VH
VL: B1 VL with T28S, L42M
B7: 46B7-1 (antibody, V domains shown)
VH: B1 VH with F29L, F33Y, F51Y, D56G, H57Y, I65K, I68V, N77T, P88T, T101A
VL: B1 VL with T28S, I29V, L30I
B8: 44E8-1 (antibody, V domains shown)
VH: DVQLQESGPGLVRPSQSLSLTCTVTGYSITSDYAWNWIRQFPGNKLEWMGFITYSGNTNYNPSLKSRISITRDTSKNQFFLQLNSVTTEETATYYCASSGNYFDYWGQGTTLTVSS
VL: B1 VL with T28S, L30V, S48P, V90F
B9: 43D6-1 (antibody, V domains shown)
VH: B1 VH with F29L, F33Y, F51Y, D56G, H57Y, I65K, I68V, N77T, P88T, T101A
VL: B1 VL with T28S, I29V, L30I
B10: 17E11-1 (antibody, IgG1, V domains shown)
VH: EVQLLQSVAELVRPGASVKLSCTASGFNIKNTFIHWLKQRPEQGLEWIGKIDPANGNIRCAPKFQGKATITADTSSNTAYLQLSSLTSGDTAIYYCGRGTMLVGHFYWYFDVWGTGTTVTVSS
VL: DIVMSQSPSSLAVSVGEKITMSCKSSQSLLYSSNQKNYLAWYQQKPGQSPKLLIYWASTRESGVPDRFSGSGSGTDFTLTISSVKTEDLAIFYCQQYYYYPPTFGAGTKLELR
B11: R4P1-C1 (phage Fab clone) (Fab, V domains shown)
VH: QVQLQQSGPGLVKPSQTLSLTCAISGDSVSSNSAAWNWIRQSPSRGLEWLGRTYYRSKWYNDYAVSVKSRITINPDTSKNQFSLQLNSVTPEDTAVYYCARDDYDPVGMYAFDIWGQGTLVTVSS
VL: LPVLTQPPSASGTPGQRVTISCSGSSSNIGSNTVNWYQQLPGTAPKLLIYRNTQRPSGVPDRFSGSKSGTSASLAISGLQSEDEADYYCEAWDDSMRGAAFGGGTQLTVL

Assays:
[1] = target: human TRPV1 (transient receptor potential vanilloid type 1) (human) (UniProt Q8NER1); experiment: FACS on CHO TRPV1 cells, supernatant of the parental hybridoma
[2] = target: human TRPV1 (transient receptor potential vanilloid type 1) (human) (UniProt Q8NER1); experiment: FACS on CHO TRPV1 cells, purified antibody
OTV4-OVA (human) = experiment: monoclonal phage ELISA
OTV4-BSA (human; bovine) = OTV4-BSA (human; bovine) (UniProt P02769); experiment: monoclonal phage ELISA
OTV3-OVA (human) = experiment: monoclonal phage ELISA
OTV3-BSA (human; bovine) = OTV3-BSA (human; bovine) (UniProt P02769); experiment: monoclonal phage ELISA

Row | Binder | binding [1] | also measured
1 | B1 | binds | 
2 | B2 | binds | 
3 | B3 | binds | 
4 | B4 | binds | 
5 | B5 | binds | 
6 | B6 | binds | 
7 | B7 | binds | 
8 | B8 | binds | 
9 | B9 | binds | 
10 | B10 |  | binding [2]: binds
11 | B11 |  | binding (OTV4-OVA (human)): binds; binding (OTV4-BSA (human; bovine)): binds; binding (OTV3-OVA (human)): binds; binding (OTV3-BSA (human; bovine)): binds
